According to US20140314774A1 (UAB RESEARCH FOUNDATION, published 2014):
These are yes or no findings as the source states them, for the method shown. In cells and extracts the contact can be indirect. A yes stands for co-enrichment or nearness to the bait. Other partners may have been found.

Chains of the proteins cited; added tags and fusions are not shown. Residues count along the entry.
UniProt P21860, residues 20-1342: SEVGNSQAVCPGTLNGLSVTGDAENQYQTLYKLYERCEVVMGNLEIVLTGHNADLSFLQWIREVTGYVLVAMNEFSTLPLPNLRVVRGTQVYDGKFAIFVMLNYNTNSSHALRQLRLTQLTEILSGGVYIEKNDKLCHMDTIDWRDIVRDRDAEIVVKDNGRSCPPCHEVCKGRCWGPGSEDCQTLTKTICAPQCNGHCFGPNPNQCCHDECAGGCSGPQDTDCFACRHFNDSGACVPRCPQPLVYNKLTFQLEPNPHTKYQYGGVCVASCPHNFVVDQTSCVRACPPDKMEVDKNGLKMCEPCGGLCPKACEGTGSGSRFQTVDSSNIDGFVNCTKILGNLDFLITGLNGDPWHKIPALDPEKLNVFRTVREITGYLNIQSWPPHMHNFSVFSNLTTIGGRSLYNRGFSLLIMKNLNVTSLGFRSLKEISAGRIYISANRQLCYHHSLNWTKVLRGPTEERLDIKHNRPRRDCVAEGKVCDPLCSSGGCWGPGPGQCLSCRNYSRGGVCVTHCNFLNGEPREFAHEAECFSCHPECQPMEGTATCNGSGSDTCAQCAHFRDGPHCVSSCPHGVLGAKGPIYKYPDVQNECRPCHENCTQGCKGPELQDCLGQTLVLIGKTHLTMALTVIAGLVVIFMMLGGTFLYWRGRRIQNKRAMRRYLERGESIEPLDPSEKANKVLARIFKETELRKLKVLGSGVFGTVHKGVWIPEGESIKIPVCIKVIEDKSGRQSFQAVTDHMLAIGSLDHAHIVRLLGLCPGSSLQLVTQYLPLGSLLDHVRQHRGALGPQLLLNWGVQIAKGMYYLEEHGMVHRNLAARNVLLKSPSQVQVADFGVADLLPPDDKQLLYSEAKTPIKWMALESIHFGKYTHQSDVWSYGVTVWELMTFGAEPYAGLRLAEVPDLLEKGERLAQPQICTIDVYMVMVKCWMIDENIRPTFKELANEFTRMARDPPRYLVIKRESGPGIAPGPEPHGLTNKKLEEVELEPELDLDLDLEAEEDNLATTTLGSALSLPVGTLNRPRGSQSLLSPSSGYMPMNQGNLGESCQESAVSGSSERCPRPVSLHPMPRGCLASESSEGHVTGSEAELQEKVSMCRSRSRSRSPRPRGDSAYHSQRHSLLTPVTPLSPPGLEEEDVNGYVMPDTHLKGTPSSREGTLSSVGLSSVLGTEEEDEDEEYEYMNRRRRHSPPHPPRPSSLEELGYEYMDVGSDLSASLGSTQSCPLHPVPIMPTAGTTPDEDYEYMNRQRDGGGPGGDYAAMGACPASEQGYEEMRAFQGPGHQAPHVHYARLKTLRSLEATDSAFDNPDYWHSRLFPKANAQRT

Molecular target: HER3 of human cancer cell lines (endogenous) (human) (UniProt P21860)
Test: immunoprecipitation and mass spectrometry

binding: binds
B1: 1A5 antibody (antibody, V domains shown)
VH: QVQLQQSGAELARPGASVKLSCKASGYTFTDNYINWMKQRPGQGLEWIGEIYPGSGNTYYNEKFKGKATLTADKSSSTAYMQLSSLTSEESAVYFCARSPNLRLYYFDYWGQGTTLTVSS
VL: DIVMTQSPATLSVTPGDRVSLSCRASQSINDYLYWYQQKLHESPRLLIKFASHSISGIPSRFSGSGSGSDFTLSINSVEPEDVGVYYCQNGHSFPLTFGAGTKLELK
notes: Hybridoma monoclonal antibody detected with goat anti-mouse IgG; also called ligand-independent HER3 antibody
